# Experimental data reported in PubChem BioAssay (NCATS).
# Where “and” joins values, the source holds several entries; their conditions need not be identical. Equal values may be shown once. This list was built around the results that the source calls inconclusive (neither active nor inactive); the mix of calls is not that of the screen. Potencies of inconclusive entries are doubtful fits and often do not repeat. Calls of active or inactive are those of the source. The call rests on the fitted dose curve; in most records, active means well fitted cell-killing curve with a large enough effect; inconclusive means small, poorly fitted or top-dose-only effect, or effect the other way; inactive means no such curve, though single readings can be large or run the other way.
# Key:
# [1] = Quantitative High-Throughput drug screen in 47 multiple myeloma cell lines against the NCATS MIPE library collection: MM1R_ATCC cell viability assay (AID 1918981); further: nearly all actives have a fitted effect of over 35% in size
# In short: (§1)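 ATP-based CellTiter-Glo luminescence after 48 h drug exposure (37 °C, 5% CO2) of 500 myeloma cells per well. DMSO-only wells set 100% viability, media-only wells 0%; MIPE 4.0 library added by pin tool.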
# [2] = Quantitative High-Throughput drug screen in 47 multiple myeloma cell lines against the NCATS MIPE library collection: LP1_DSMZ cell viability assay (AID 1918982); details: LP1 myeloma viability, CellTiter-Glo ATP luminescence, 48 h; viability (% of control): at 45.8 µM (top of the series); further: nearly all actives have a fitted effect of over 35% in size
# In short: as §1
# [3] = Quantitative High-Throughput drug screen in 47 multiple myeloma cell lines against the NCATS MIPE library collection: L363_DSMZ cell viability assay (AID 1918984); details: L363 myeloma viability, CellTiter-Glo ATP luminescence, 48 h; viability (% of control): at 45.8 µM (top of the series); further: nearly all actives have a fitted effect of over 40% in size
# In short: as §1
# [4] = Quantitative High-Throughput drug screen in 47 multiple myeloma cell lines against the NCATS MIPE library collection: KMS34_JCRB cell viability assay (AID 1918985); details: KMS34 myeloma viability, CellTiter-Glo ATP luminescence, 48 h; viability, percent of control: at 45.8 µM (top of the series); further: nearly all actives have a fitted effect of over 40% in size
# In short: as §1
# [5] = Quantitative High-Throughput drug screen in 47 multiple myeloma cell lines against the NCATS MIPE library collection: OCIMY7_PLB cell viability assay (AID 1918987); details: OCI-MY7 myeloma viability, CellTiter-Glo ATP, 48 h; viability (% of DMSO): at 45.8 µM (top of the series); further: nearly all actives have a fitted effect of over 65% in size
# In short: as §1
# [6] = Quantitative High-Throughput drug screen in 47 multiple myeloma cell lines against the NCATS MIPE library collection: OCIMY5_PLB cell viability assay (AID 1918988); details: OCI-MY5 myeloma viability, ATP luminescence, 48 h; viability, % of control: at 45.8 µM (top of the series); further: nearly all actives have a fitted effect of over 65% in size;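 on viability, % of control: 100% = DMSO-treated wells and 0% = wells with media alone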
# In short: as §1
# [7] = Quantitative High-Throughput drug screen in 47 multiple myeloma cell lines against the NCATS MIPE library collection: SKMM1_PLB cell viability assay (AID 1919863); details: SKMM1 myeloma viability, CellTiter-Glo ATP, 48 h; viability: stronger effect = lower value; further: nearly all actives have a fitted effect of over 35% in size
# In short: as §1
# [8] = Quantitative High-Throughput drug screen in 47 multiple myeloma cell lines against the NCATS MIPE library collection: U266_ATCC cell viability assay (AID 1919864); further: nearly all actives have a fitted effect of over 35% in size
# In short: as §1
# [9] = Quantitative High-Throughput drug screen in 47 multiple myeloma cell lines against the NCATS MIPE library collection: KMS28PE_JCRB cell viability assay (AID 1918983); further: nearly all actives have a fitted effect of over 35% in size
# In short: as §1
# [10] = Quantitative High-Throughput drug screen in 47 multiple myeloma cell lines against the NCATS MIPE library collection: OPM1_PLB cell viability assay (AID 1918989); details: CellTiter-Glo, 48 h; viability (% of control): at 45.8 µM (top of the series); further: nearly all actives have a fitted effect of over 40% in size
# In short: as §1
# Potency means the concentration at half of the fitted maximal effect.
Structure (SMILES),Potency [1],Potency [2],Potency [3],Potency [4],Potency [5],Potency [6],viability [7],Potency [8],Potency [9],Potency [10],Potency [7],viability (% of control) [10]
Cc1cc(OCCCc2c(C(=O)O)n(Cc3cccnc3)c3c(-c4c(COc5ccc(N6CCN([S+](C)(=O)[O-])CC6)cc5)nn(C)c4C)cccc23)cc(C)c1Cl,"inconclusive: 20900 nM [cytotoxic, partial curve, poor fit]",active: 14.8 µM,inactive,"inconclusive: 13.2 µM [cytotoxic, partial curve]","inconclusive: 1.18 µM [cytotoxic, full curve, poor fit]",–,–,–,–,–,–,–
Cc1nc(-c2ccc(OCC(C)C)c(C#N)c2)sc1C(=O)O,"inconclusive: 26.4 nM [cytotoxic, full curve, poor fit]","inconclusive: 0.372 µM [cytotoxic, partial curve, poor fit]","inconclusive: 11.8 µM [rising, single point]",inactive,"inconclusive: 3.32 µM [cytotoxic, full curve, poor fit]","inconclusive: 2.35 µM [cytotoxic, full curve, poor fit]",inactive: 114%,inactive,–,–,–,–
Cc1csc(NC(=O)c2sc3nc4c(c(C(F)(F)F)c3c2N)CCC4)n1,inactive,active: 20.9 µM,"inconclusive: 37.2 µM [cytotoxic, single point]","inconclusive: 18.7 µM [cytotoxic, partial curve]",–,–,–,–,"inconclusive: 5.26 µM [cytotoxic, partial curve, poor fit]","inconclusive: 13.2 µM [cytotoxic, partial curve]","inconclusive: 37.2 µM [cytotoxic, single point]",–
c1ccc2[nH]c(-c3cscn3)nc2c1,inactive,inactive,"inconclusive: 0.0105 µM [rising, full curve, poor fit]",inactive,inactive,inactive,inactive: 120%,"inconclusive: 16.6 µM [cytotoxic, partial curve]",–,inactive,–,–
CCCCc1ccc2nc(NC(=O)OC)[nH]c2c1,active: 59 nM,active: 0.0187 µM,"inconclusive: 0.0037 µM [cytotoxic, full curve]",active: 0.0148 µM,"inconclusive: 0.0935 µM [cytotoxic, full curve, poor fit]",active: 0.0037 µM,–,–,–,–,active: 0.0469 µM,–
O=C(O)C=Cc1ccc(O)c(O)c1,active: 23500 nM,"inconclusive: 66.2 µM [cytotoxic, partial curve, poor fit]",active: 16.6 µM,"inconclusive: 14.8 µM [cytotoxic, partial curve, poor fit]",active: 16.6 µM,active: 18.7 µM,–,–,–,–,–,–
O=c1c(-c2ccc(O)cc2)coc2cc(O[C@@H]3O[C@H](CO)[C@H](O)[C@H](O)[C@H]3O)ccc12,"inconclusive: 2.6 nM [rising, full curve, poor fit]","inconclusive: 0.0093 µM [cytotoxic, full curve, poor fit]",inactive,inactive,"inconclusive: 0.0037 µM [rising, full curve, poor fit]","inconclusive: 0.0053 µM [cytotoxic, full curve, poor fit]",inactive: 171%,"inconclusive: 1.66 µM [rising, partial curve, poor fit]",–,–,–,–
Nc1ccc(-c2ccc3ncc4ccc(=O)n(-c5cccc(C(F)(F)F)c5)c4c3c2)cn1,"inconclusive: 10.5 nM [cytotoxic, full curve]","inconclusive: 1.18 µM [cytotoxic, partial curve]","inconclusive: 0.0166 µM [cytotoxic, partial curve, poor fit]",active: 0.0066 µM,active: 0.0209 µM,–,–,–,–,–,–,–
COc1ncc(-c2ccc3nccc(-c4ccnnc4)c3c2)cc1NS(=O)(=O)c1ccc(F)cc1F,"inconclusive: 3.3 nM [cytotoxic, full curve]","inconclusive: 3.32 µM [cytotoxic, full curve]","inconclusive: 0.132 µM [cytotoxic, partial curve, poor fit]","inconclusive: 0.0264 µM [cytotoxic, full curve]",–,–,–,"inconclusive: 11.8 µM [cytotoxic, partial curve]","inconclusive: 0.0743 µM [cytotoxic, full curve]",–,–,inconclusive: 3.92% [cytotoxic]
CC(C)OC(=O)CCCC=CC[C@@H]1[C@H](C=C[C@@H](O)COc2cccc(C(F)(F)F)c2)[C@H](O)C[C@@H]1O,"inconclusive: 16600 nM [cytotoxic, partial curve]",active: 14.8 µM,"inconclusive: 1.32 µM [cytotoxic, full curve, poor fit]",active: 13.2 µM,–,–,–,–,–,–,–,–
CC[C@@]1(O)C[C@H](O[C@H]2C[C@H](N(C)C)[C@H](O[C@H]3C[C@H](O)[C@H](O[C@H]4CCC(=O)[C@H](C)O4)[C@H](C)O3)[C@H](C)O2)c2c(cc3c(c2O)C(=O)c2c(O)cccc2C3=O)[C@@H]1C(=O)OC,active: 209 nM,active: 1.05 µM,"inconclusive: 16.6 µM [cytotoxic, partial curve, poor fit]",active: 2.09 µM,active: 0.372 µM,active: 0.0935 µM,–,–,–,active: 0.833 µM,–,–
CC[N+](CC)(CC)CCOc1cccc(OCC[N+](CC)(CC)CC)c1OCC[N+](CC)(CC)CC,inactive,inactive,"inconclusive: 2.64 µM [cytotoxic, full curve, poor fit]",inactive,inactive,"inconclusive: 1.32 µM [cytotoxic, full curve, poor fit]",inactive: 112%,inactive,–,–,–,–
O=C(O)c1cccc(-c2noc(-c3ccccc3F)n2)c1,"inconclusive: 41.8 nM [cytotoxic, full curve, poor fit]",inactive,"inconclusive: 37.2 µM [cytotoxic, single point]",–,–,active: 9.35 µM,–,active: 18.7 µM,active: 14.8 µM,–,–,–
O=c1cc(-c2ccccc2)oc2cc(O)cc(O)c12,inactive,"inconclusive: 0.0012 µM [cytotoxic, full curve, poor fit]",–,–,"inconclusive: 8.33 µM [cytotoxic, full curve, poor fit]","inconclusive: 0.662 µM [rising, full curve, poor fit]",inactive: 139%,inactive,"inconclusive: 0.187 µM [rising, full curve, poor fit]",inactive,–,–
CS(=O)c1ccc(-c2nc(-c3ccc(F)cc3)c(-c3ccncc3)[nH]2)cc1 (configuration not stated),"inconclusive: 34000 nM [cytotoxic, partial curve, poor fit]","inconclusive: 54 µM [cytotoxic, single point]",active: 24.1 µM,"inconclusive: 30.3 µM [cytotoxic, partial curve, poor fit]",active: 9.59 µM,active: 19.1 µM,inconclusive: 111% [cytotoxic],–,–,–,–,–
Nc1nccc(Oc2ccc(NC(=O)c3c[nH]cc(-c4ccc(F)cc4)c3=O)cc2F)c1Cl,active: 2350 nM,active: 18.7 µM,"inconclusive: 0.743 µM [cytotoxic, full curve, poor fit]",active: 18.7 µM,–,–,–,–,–,–,active: 23.5 µM,–
CS(=O)(=O)N(Cc1ccco1)CC(O)Cn1c2ccccc2c2ccccc21 (configuration not stated),"inconclusive: 11800 nM [cytotoxic, partial curve, poor fit]","inconclusive: 29.6 µM [cytotoxic, single point]",inactive,active: 16.6 µM,–,"inconclusive: 5.26 µM [cytotoxic, partial curve, poor fit]",–,–,–,–,"inconclusive: 13.2 µM [cytotoxic, partial curve, poor fit]",–
CC(C)(C(=O)NCC(F)(F)C(F)(F)F)C(=O)N[C@@H]1C(=O)Nc2ccccc2-c2ccccc21,"inconclusive: 16.6 nM [rising, full curve]",–,active: 3.72 µM,inactive,"inconclusive: 33.2 µM [cytotoxic, single point]",inactive,inactive: 128%,"inconclusive: 26.4 µM [cytotoxic, single point]",inactive,–,–,–
CC(C=CC1=C(C)CCCC1(C)C)=CC=CC(C)=CC(=O)O,"inconclusive: 6620 nM [cytotoxic, partial curve]","inactive and inconclusive: 10.5 µM [cytotoxic, partial curve]","inconclusive: 14.8 µM [cytotoxic, partial curve, poor fit] and inconclusive: 743 nM [cytotoxic, full curve, poor fit]","inconclusive: 26.4 µM [cytotoxic, partial curve, poor fit] and inconclusive: 11.8 µM [cytotoxic, partial curve, poor fit]",–,"inconclusive: 0.372 µM [cytotoxic, full curve, poor fit]",–,–,–,–,"inconclusive: 33.2 µM [cytotoxic, single point]",–

# Of the compounds above, these have a Cl atom.
Structure (SMILES),Potency [1],Potency [2],Potency [3],Potency [4],Potency [5],Potency [6],viability [7],Potency [8],Potency [9],Potency [10],Potency [7],viability (% of control) [10]
Cc1cc(OCCCc2c(C(=O)O)n(Cc3cccnc3)c3c(-c4c(COc5ccc(N6CCN([S+](C)(=O)[O-])CC6)cc5)nn(C)c4C)cccc23)cc(C)c1Cl,"inconclusive: 20900 nM [cytotoxic, partial curve, poor fit]",active: 14.8 µM,inactive,"inconclusive: 13.2 µM [cytotoxic, partial curve]","inconclusive: 1.18 µM [cytotoxic, full curve, poor fit]",–,–,–,–,–,–,–
Nc1nccc(Oc2ccc(NC(=O)c3c[nH]cc(-c4ccc(F)cc4)c3=O)cc2F)c1Cl,active: 2350 nM,active: 18.7 µM,"inconclusive: 0.743 µM [cytotoxic, full curve, poor fit]",active: 18.7 µM,–,–,–,–,–,–,active: 23.5 µM,–
